Test results taken from article PMC9616960.
Results are given in words; binding and its absence hold for the method and conditions named. Binding seen in cells or lysates may run through a third protein. A yes stands for co-enrichment or nearness to the bait. Other partners may have been found. For some of these results: A no says only that the protein was not detected with the bait.

T1: Nephrin (not stated (endogenous in glomeruli of rat or mouse)) (UniProt Q9R044)
T1 sequence: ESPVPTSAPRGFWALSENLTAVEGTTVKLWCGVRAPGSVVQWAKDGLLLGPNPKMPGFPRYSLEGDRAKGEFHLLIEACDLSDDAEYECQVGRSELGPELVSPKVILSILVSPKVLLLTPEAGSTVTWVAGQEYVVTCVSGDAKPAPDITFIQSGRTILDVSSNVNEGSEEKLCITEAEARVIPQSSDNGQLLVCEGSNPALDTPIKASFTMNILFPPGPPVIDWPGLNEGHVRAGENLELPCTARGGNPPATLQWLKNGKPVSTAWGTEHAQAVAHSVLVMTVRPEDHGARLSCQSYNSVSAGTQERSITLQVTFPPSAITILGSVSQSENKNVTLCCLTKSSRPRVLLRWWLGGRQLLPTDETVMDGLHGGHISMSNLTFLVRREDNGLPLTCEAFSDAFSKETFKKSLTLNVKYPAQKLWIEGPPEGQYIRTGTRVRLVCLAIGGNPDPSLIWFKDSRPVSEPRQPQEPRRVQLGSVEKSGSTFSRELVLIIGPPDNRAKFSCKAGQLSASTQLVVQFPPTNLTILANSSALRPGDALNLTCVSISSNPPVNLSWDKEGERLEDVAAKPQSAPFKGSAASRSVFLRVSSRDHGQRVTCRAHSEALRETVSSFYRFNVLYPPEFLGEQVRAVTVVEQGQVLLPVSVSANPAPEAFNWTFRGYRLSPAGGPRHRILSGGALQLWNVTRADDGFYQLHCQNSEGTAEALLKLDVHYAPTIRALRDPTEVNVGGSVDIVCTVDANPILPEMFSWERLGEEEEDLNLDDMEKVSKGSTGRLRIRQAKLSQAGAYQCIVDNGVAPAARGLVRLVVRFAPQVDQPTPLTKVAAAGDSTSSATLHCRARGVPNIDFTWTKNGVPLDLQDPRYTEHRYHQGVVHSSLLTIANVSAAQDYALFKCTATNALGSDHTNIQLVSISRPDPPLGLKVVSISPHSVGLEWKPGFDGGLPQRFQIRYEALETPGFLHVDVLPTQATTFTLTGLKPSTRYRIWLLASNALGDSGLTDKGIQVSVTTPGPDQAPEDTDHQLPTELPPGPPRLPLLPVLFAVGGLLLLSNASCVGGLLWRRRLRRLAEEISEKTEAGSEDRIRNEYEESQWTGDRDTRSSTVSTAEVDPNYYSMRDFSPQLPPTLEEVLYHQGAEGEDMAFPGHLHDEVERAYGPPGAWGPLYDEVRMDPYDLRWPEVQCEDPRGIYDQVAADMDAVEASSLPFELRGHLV

T2: Neph1 (not stated (endogenous in glomeruli of rat or mouse)) (UniProt Q6X936)
T2 sequence: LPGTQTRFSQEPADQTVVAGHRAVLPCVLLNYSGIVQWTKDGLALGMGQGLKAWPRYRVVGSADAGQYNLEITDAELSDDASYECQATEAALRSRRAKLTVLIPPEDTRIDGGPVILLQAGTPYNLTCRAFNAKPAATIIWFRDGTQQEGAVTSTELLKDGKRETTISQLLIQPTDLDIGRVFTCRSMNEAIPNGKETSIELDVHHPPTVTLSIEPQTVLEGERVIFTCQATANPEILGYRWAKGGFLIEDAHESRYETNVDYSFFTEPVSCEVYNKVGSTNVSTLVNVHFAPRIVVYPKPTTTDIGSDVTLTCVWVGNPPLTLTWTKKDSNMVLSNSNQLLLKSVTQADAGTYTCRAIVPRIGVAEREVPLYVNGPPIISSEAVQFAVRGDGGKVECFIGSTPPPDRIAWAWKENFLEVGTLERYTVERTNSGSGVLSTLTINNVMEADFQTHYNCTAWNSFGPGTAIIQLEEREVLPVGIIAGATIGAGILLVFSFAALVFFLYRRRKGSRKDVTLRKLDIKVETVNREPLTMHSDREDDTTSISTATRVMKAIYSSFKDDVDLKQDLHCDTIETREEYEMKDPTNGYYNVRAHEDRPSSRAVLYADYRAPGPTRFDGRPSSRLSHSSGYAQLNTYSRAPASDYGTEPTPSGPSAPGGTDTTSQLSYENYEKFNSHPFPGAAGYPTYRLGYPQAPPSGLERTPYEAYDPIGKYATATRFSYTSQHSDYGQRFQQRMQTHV


Key:
[1] = molecular target: T1, Nephrin (not stated (endogenous in glomeruli of rat or mouse)); assay: affinity purification with mass spectrometry; three anti-Nephrin/Neph1 ABs immobilised on magnetic beads, two hours with CL-47 or CL-91 solubilisates of glomerular membrane fractions; eluates by nano-LC-MS/MS; specific: tnR >=0.2 against three target-unrelated ABs/IgG, in at least two anti-Nephrin/Neph1 APs
[2] = molecular target: T2, Neph1 (not stated (endogenous in glomeruli of rat or mouse)); assay: as above

Row | Binder | binding [1] | binding [2]
1 | Neph1 (protein, UniProt Q6X936 48-789) LPGTQTRFSQEPADQTVVAGHRAVLPCVLLNYSGIVQWTKDGLALGMGQGLKAWPRYRVVGSADAGQYNLEITDAELSDDASYECQATEAALRSRRAKLTVLIPPEDTRIDGGPVILLQAGTPYNLTCRAFNAKPAATIIWFRDGTQQEGAVTSTELLKDGKRETTISQLLIQPTDLDIGRVFTCRSMNEAIPNGKETSIELDVHHPPTVTLSIEPQTVLEGERVIFTCQATANPEILGYRWAKGGFLIEDAHESRYETNVDYSFFTEPVSCEVYNKVGSTNVSTLVNVHFAPRIVVYPKPTTTDIGSDVTLTCVWVGNPPLTLTWTKKDSNMVLSNSNQLLLKSVTQADAGTYTCRAIVPRIGVAEREVPLYVNGPPIISSEAVQFAVRGDGGKVECFIGSTPPPDRIAWAWKENFLEVGTLERYTVERTNSGSGVLSTLTINNVMEADFQTHYNCTAWNSFGPGTAIIQLEEREVLPVGIIAGATIGAGILLVFSFAALVFFLYRRRKGSRKDVTLRKLDIKVETVNREPLTMHSDREDDTTSISTATRVMKAIYSSFKDDVDLKQDLHCDTIETREEYEMKDPTNGYYNVRAHEDRPSSRAVLYADYRAPGPTRFDGRPSSRLSHSSGYAQLNTYSRAPASDYGTEPTPSGPSAPGGTDTTSQLSYENYEKFNSHPFPGAAGYPTYRLGYPQAPPSGLERTPYEAYDPIGKYATATRFSYTSQHSDYGQRFQQRMQTHV | binds | –
2 | tyrosine kinase MER (protein, UniProt P57097 19-994) GGTAEKEEEIKPDQPFSGPLPGSLPADHRPFFAPHSSGDQLSPSQTGRSHPAHTATPQMTSAASNLLPPVAFKNTIGRIVLSEHKSVKFNCSINIPNVYQETAGISWWKDGKELLGAHHSITQFYPDEEGVSIIALFSITSVQRSDNGSYICKMKVNDREVVSDPIYVEVQGLPYFTKQPESVNVTRNTAFNLTCQAVGPPEPVNIFWVQNSSRVNENPERSPSVLTVAGLTETAVFSCEAHNDKGLTVSKGVQINIKVIPSPPTEVHILNSTAHSILVSWVPGFDGYSPLQNCSIQVKEADQLSNGSVMVFNTSASPHLYEVQQLQALANYSVTVSCRNEIGWSAVSPWILASTTEGAPAVAPLNITVFLNESSNNLEIRWTKPPIKRQDGELVGYRISHVWESAGTSKELSEEVSQNGSWAQVPVQMHNATCTVRIAVITKGGIGPFSEPVDVAIPEHSRVDYAPSSTPAPGNTESMLIILGCFCGFVLMGLILYLSLAIKRRVQETKFGGAFSEEDSQLVVNYRAKKSFCRRAIELTLQSLGVSEELQNKLEDVVVDRNLLILGKVLGEGEFGSVMEGNLKQEDGTSQKVAVKTMKLDNFSLREIEEFLSEAACMKDFNHPNVIRLLGVCIELSSQGIPKPMVILPFMKYGDLHTFLLYSRIESVPKSIPLQTLLKFMVDIAQGMEYLSSRNFLHRDLAARNCMLRDDMTVCVADFGLSKKIYSGDYYRQGRIAKMPVKWIAIESLADRVYTSKSDVWAFGVTMWEIATRGMTPYPGVQNHEMYDYLLHGHRLKQPEDCLDDLYEIMYSCWSADPLDRPTFSVLRLQLEKLSESLPDAQDKESIIYINTQLLESCEGLANRSSLAGLDMNIDPDSIIASCTAGAAVSVVMAEVHENNLHEERYILNGGNEEWEDVASTPFATVTAGKDGVLPEDRLTKNGISWSHHSTLPLGSPSPDELLFADDSSGDSEVLM | binds | binds
3 | R-Ras (protein, UniProt D3Z8L7 1-218) MSSGAASGTGRGRPRGGGPGPRDPPPGETHKLVVVGGGGVGKSALTIQFIQSYFVSDYDPTIEDSYTKICTVDGIPARLDILDTAGQEEFGAMREQYMRAGNGFLLVFAINDRQSFIEVSKLFTQILRVKDRDDFPIVLVGNKADLETQRQVLRSEASSFSASHHMTYFEASAKLRLNVDEAFEQLVRTVRKYQEQELPPSPPSAPRKKDGRCPCVLL | binds | binds
4 | Nephrin (protein, UniProt Q9R044 37-1252) ESPVPTSAPRGFWALSENLTAVEGTTVKLWCGVRAPGSVVQWAKDGLLLGPNPKMPGFPRYSLEGDRAKGEFHLLIEACDLSDDAEYECQVGRSELGPELVSPKVILSILVSPKVLLLTPEAGSTVTWVAGQEYVVTCVSGDAKPAPDITFIQSGRTILDVSSNVNEGSEEKLCITEAEARVIPQSSDNGQLLVCEGSNPALDTPIKASFTMNILFPPGPPVIDWPGLNEGHVRAGENLELPCTARGGNPPATLQWLKNGKPVSTAWGTEHAQAVAHSVLVMTVRPEDHGARLSCQSYNSVSAGTQERSITLQVTFPPSAITILGSVSQSENKNVTLCCLTKSSRPRVLLRWWLGGRQLLPTDETVMDGLHGGHISMSNLTFLVRREDNGLPLTCEAFSDAFSKETFKKSLTLNVKYPAQKLWIEGPPEGQYIRTGTRVRLVCLAIGGNPDPSLIWFKDSRPVSEPRQPQEPRRVQLGSVEKSGSTFSRELVLIIGPPDNRAKFSCKAGQLSASTQLVVQFPPTNLTILANSSALRPGDALNLTCVSISSNPPVNLSWDKEGERLEDVAAKPQSAPFKGSAASRSVFLRVSSRDHGQRVTCRAHSEALRETVSSFYRFNVLYPPEFLGEQVRAVTVVEQGQVLLPVSVSANPAPEAFNWTFRGYRLSPAGGPRHRILSGGALQLWNVTRADDGFYQLHCQNSEGTAEALLKLDVHYAPTIRALRDPTEVNVGGSVDIVCTVDANPILPEMFSWERLGEEEEDLNLDDMEKVSKGSTGRLRIRQAKLSQAGAYQCIVDNGVAPAARGLVRLVVRFAPQVDQPTPLTKVAAAGDSTSSATLHCRARGVPNIDFTWTKNGVPLDLQDPRYTEHRYHQGVVHSSLLTIANVSAAQDYALFKCTATNALGSDHTNIQLVSISRPDPPLGLKVVSISPHSVGLEWKPGFDGGLPQRFQIRYEALETPGFLHVDVLPTQATTFTLTGLKPSTRYRIWLLASNALGDSGLTDKGIQVSVTTPGPDQAPEDTDHQLPTELPPGPPRLPLLPVLFAVGGLLLLSNASCVGGLLWRRRLRRLAEEISEKTEAGSEDRIRNEYEESQWTGDRDTRSSTVSTAEVDPNYYSMRDFSPQLPPTLEEVLYHQGAEGEDMAFPGHLHDEVERAYGPPGAWGPLYDEVRMDPYDLRWPEVQCEDPRGIYDQVAADMDAVEASSLPFELRGHLV | – | binds
5 | Podocin (protein, UniProt Q8K4G9 1-383) MDSRARSSSRKTHGRGSRSSSRDDKKSKAGRGNRGRARPDAGAERQSAGRTGTREEHRAPAATVVNVDEVRSPGEEGTEVVALLESERPEEGIKPSGLGACEWLLVLSSLIFIIVTFPFSIWFCIKVVQEYERVIIFRLGHLLPGRAKGPGLFFFLPCLDTYHKVDLRLQTLEIPFHEVVTKDMFIMEIDAVCYYRMENASLLLSSLAHVSKAIQFLVQTTMKRLLAHRSLTEILLERKSIAQDVKVALDSVTCVWGIKVERTEIKDVRLPAGLQHSLAVEAEAQRQAKVRVIAAEGEKAASESLRMAAEILSGTPAAVQLRYLHTLQSLSTDKPSTVVLPLPFDMLNLLSSPSNRAQGSINYPSSPKPVEPLNPKRKDSPML | – | no binding
